Test results taken from PubChem BioAssay AID248 (DTP/NCI, 2004).
The list does not hold the whole screen: it gathers tests that were run many times, whatever their T/C, doses with no T/C, and many T/C values between a quarter and a half above the control. Further doses and runs are listed elsewhere. T/C gives the treated animals as a percentage of the vehicle group. Some entries give survivors of the animals treated and no T/C: the source holds a T/C of zero for them, seemingly a mark for toxic or unscored doses. Some doses without a T/C left all or most animals alive at the check, yet need not have been tolerated: the source hardly ever lists a survival T/C far under the control, and the zero likely stands for such cases as well. Counts of survivors are from the toxicity check (mostly the fifth day) where no day follows; animals may have died later. Schedules are NCI's codes, taken here to give the interval after Q, in days (D) or hours (H), and the number of doses after X. Some doses were run more than once; their values stand side by side, smallest first. Where survival is the endpoint, this PubChem deposit counts one and a half times the control or more as active, and values a quarter to a half above the control carry no call in these data; other NCI protocols may use other cut-offs. Marks such as (2×) say how often a value occurs here. Some T/C values are followed by the survivors on the day toxicity was checked, most often the fifth; where none is given, no animal had died by that day.

Test system: L1210 leukemia ip in BDF1 mice, survival T/C
Experiment: NCI In Vivo Anticancer Drug Screen. Data for tumor model L1210 Leukemia (intraperitoneal) in B6D2F1 (BDF1) mice
Conditions: T/C endpoint: mean survival time, higher T/C = longer survival
[1] = dose: 100.0 mg/kg/injection, schedule: Q04DX003 (ip), vehicle: saline
[2] = dose: 200.0 mg/kg/injection, schedule: Q04DX003 (ip), vehicle: saline
[3] = dose: 400.0 mg/kg/injection, schedule: Q04DX003 (ip), vehicle: saline
[4] = dose: 12.5 mg/kg/injection, schedule: Q01DX009 (ip), vehicle: Klucel (hydroxypropylcellulose) (HPC)
[5] = dose: 25.0 mg/kg/injection, schedule: Q01DX009 (ip), vehicle: Klucel (hydroxypropylcellulose) (HPC)
[6] = dose: 50.0 mg/kg/injection, schedule: Q01DX009 (ip), vehicle: Klucel (hydroxypropylcellulose) (HPC)
[7] = dose: 50.0 mg/kg/injection, schedule: Q04DX002 (ip), vehicle: saline with Tween-80
[8] = dose: 100.0 mg/kg/injection, schedule: Q04DX002 (ip), vehicle: saline with Tween-80
[9] = dose: 200.0 mg/kg/injection, schedule: Q04DX002 (ip), vehicle: saline with Tween-80
[10] = dose: 400.0 mg/kg/injection, schedule: Q04DX002 (ip), vehicle: saline with Tween-80
[11] = dose: 400.0 mg/kg/injection, schedule: Q01DX001 (ip), vehicle: saline

**Q.** Which results are given for `N#C/C(=C\c1ccc(-c2ccccc2)cc1)c1ccc(Cl)cc1`?
**A.** survivor count (dose: 25.0 mg/kg/injection, schedule: Q01DX009 (ip), vehicle: saline with Tween-80): 6 of 6; survivor count (dose: 50.0 mg/kg/injection, schedule: Q01DX009 (ip), vehicle: saline with Tween-80): 6 of 6

**Q.** For `OCCNCCc1ccccc1`, which survivor count (dose: 300.0 mg/kg/injection, schedule: Q01DX009 (ip), vehicle: carboxymethylcellulose (CMC)) is on record?
**A.** 0 of 6

**Q.** With `Oc1ccc(Nc2ccnc3cc(Cl)ccc23)cc1CN1CCCC1` as the molecule, how does the survivor count [1] read?
**A.** 5 of 6

**Q.** And the survivor count (dose: 170.0 mg/kg/injection, schedule: Q01DX009 (ip), vehicle: saline)?
**A.** 0 of 6

**Q.** What about the survivor count [2] of the same molecule?
**A.** 2 of 6

**Q.** What about the survivor count [3] of the same molecule?
**A.** 3 of 6

**Q.** Which survivor count (dose: 400.0 mg/kg/injection, schedule: Q01DX009 (ip), vehicle: carboxymethylcellulose (CMC)) does the source give for `Cc1ccc(/C=C/c2ccccn2)cc1` here?
**A.** 1 of 3 and 3 of 6

**Q.** What does the source list for `N#Cc1nccnc1C#N`?
**A.** survivor count (dose: 100.0 mg/kg/injection, schedule: Q04DX002 (ip), vehicle: DMSO): 3 of 3; survivor count (dose: 200.0 mg/kg/injection, schedule: Q04DX002 (ip), vehicle: DMSO): 3 of 3; survivor count (dose: 400.0 mg/kg/injection, schedule: Q04DX002 (ip), vehicle: DMSO): 0 of 3

**Q.** What does the source list for `O=C1OC(c2ccccc2)=C/C1=C/c1ccc(Cl)cc1`?
**A.** survivor count (dose: 200.0 mg/kg/injection, schedule: Q01DX001 (ip), vehicle: alcohol): 6 of 6; survivor count (dose: 400.0 mg/kg/injection, schedule: Q01DX001 (ip), vehicle: alcohol): 6 of 6

**Q.** Which results are given for `CCCCOP1(=O)NC(=O)C=C(C)N1` (centres undefined)?
**A.** survivor count (dose: 50.0 mg/kg/injection, schedule: Q01DX005 (ip), vehicle: saline): 3 of 3; survivor count (dose: 100.0 mg/kg/injection, schedule: Q01DX005 (ip), vehicle: saline): 2 of 3; survivor count (dose: 200.0 mg/kg/injection, schedule: Q01DX005 (ip), vehicle: saline): 3 of 3

**Q.** For `CN1CCCN(C(=S)S)CC1`, which survivor count (dose: 300.0 mg/kg/injection, schedule: Q01DX001 (ip), vehicle: saline) is on record?
**A.** 1 of 6

**Q.** For `CCCOCCOCCOC(C)Oc1ccc(OC)cc1` (centres undefined), which survivor count (dose: 400.0 mg/kg/injection, schedule: Q04DX002 (ip), vehicle: saline) is on record?
**A.** 3 of 3

**Q.** How did the survivor count (dose: 6.25 mg/kg/injection, schedule: Q01DX009 (ip), vehicle: Klucel (hydroxypropylcellulose) (HPC)) turn out when `COc1cc(CC2c3ccccc3CC[N+]2(C)C)c(Oc2cc(CC3c4ccccc4CC[N+]3(C)C)ccc2OC)cc1OC` (centres undefined) was run?
**A.** 3 of 3

**Q.** What about the survivor count [4] of the same molecule?
**A.** 3 of 3

**Q.** What about the survivor count [5] of the same molecule?
**A.** 0 of 3

**Q.** And the survivor count [6]?
**A.** 0 of 3

**Q.** What about the survivor count (dose: 100.0 mg/kg/injection, schedule: Q01DX009 (ip), vehicle: Klucel (hydroxypropylcellulose) (HPC)) of the same molecule?
**A.** 0 of 3

**Q.** And the survivor count (dose: 200.0 mg/kg/injection, schedule: Q01DX009 (ip), vehicle: Klucel (hydroxypropylcellulose) (HPC))?
**A.** 0 of 3

**Q.** For `CCC[CH2][Sn]1([CH2]CCC)[O]c2ccccc2[O]1`, which survivor count (dose: 12.5 mg/kg/injection, schedule: Q04DX002 (ip), vehicle: saline with Tween-80) is on record?
**A.** 2 of 3

**Q.** And the survivor count (dose: 25.0 mg/kg/injection, schedule: Q04DX002 (ip), vehicle: saline with Tween-80)?
**A.** 2 of 3

**Q.** What about the survivor count [7] of the same molecule?
**A.** 0 of 3

**Q.** What about the survivor count [8] of the same molecule?
**A.** 0 of 3

**Q.** And the survivor count [9]?
**A.** 0 of 3

**Q.** What about the survivor count [10] of the same molecule?
**A.** 0 of 3

**Q.** Which survivor count [11] does the source give for `O=C(CCCC(=O)NNC(=S)NC1CCCCC1)NNC(=S)NC1CCCCC1` here?
**A.** 2 of 4

**Q.** For `O=[N+]([O-])c1ccc(Cn2cnc3c(Cl)ncnc32)cc1`, which survivor count (dose: 200.0 mg/kg/injection, schedule: Q01DX001 (ip), vehicle: other) is on record?
**A.** 1 of 6

**Q.** And the survivor count (dose: 400.0 mg/kg/injection, schedule: Q01DX001 (ip), vehicle: other)?
**A.** 0 of 6

**Q.** With `OCCNC(=S)SCc1ccccc1` as the molecule, how does the survivor count (dose: 400.0 mg/kg/injection, schedule: Q01DX009 (sc), vehicle: olive oil, sesame oil, peanut oil) read?
**A.** 3 of 6

**Q.** For `O=C(C[P+](c1ccccc1)(c1ccccc1)c1ccccc1)c1ccccc1`, which survivor count (dose: 200.0 mg/kg/injection, schedule: Q01DX001 (ip), vehicle: Klucel (hydroxypropylcellulose) (HPC)) is on record?
**A.** 1 of 6

**Q.** And the survivor count (dose: 400.0 mg/kg/injection, schedule: Q01DX001 (ip), vehicle: Klucel (hydroxypropylcellulose) (HPC))?
**A.** 0 of 6

**Q.** For `COC(=O)c1ccccn1`, which survivor count [10] is on record?
**A.** 0 of 3

**Q.** For `C[N+](C)(C)N=C1CCCCC1`, which survivor count [11] is on record?
**A.** 0 of 4

**Q.** Which results are given for `O=C(Nc1ccc(F)c([N+](=O)[O-])c1)Oc1cccnc1`?
**A.** T/C (dose: 100.0 mg/kg/injection, schedule: Q01DX009 (ip), vehicle: saline with Tween-80): 87 [2 of 3 alive], 93 [5 of 6 alive], 99, 103 % of control [4 of 6 alive]; survivor count (dose: 200.0 mg/kg/injection, schedule: Q01DX009 (ip), vehicle: saline with Tween-80): 0 of 3 and 1 of 6; survivor count (dose: 400.0 mg/kg/injection, schedule: Q01DX001 (ip), vehicle: saline with Tween-80): 0 of 6; survivor count (dose: 400.0 mg/kg/injection, schedule: Q01DX009 (ip), vehicle: saline with Tween-80): 0 of 3 and 0 of 6; survivor count (dose: 400.0 mg/kg/injection, schedule: Q04DX003 (ip), vehicle: saline with Tween-80): 0 of 6

**Q.** For `Clc1nnc2c3ccccc3ccn12`, which survivor count [11] is on record?
**A.** 0 of 6

**Q.** `CC(=O)N(c1ccncc1)c1ccc(NC(=O)c2ccc(N3C(=O)c4ccccc4C3=O)cc2[N+](=O)[O-])cc1` was tested. Which T/C [7] did it give?
**A.** 98 (2×) and 109 % of control

**Q.** What about the survivor count [7] of the same molecule?
**A.** 1 of 3

**Q.** What about the T/C [8] of the same molecule?
**A.** 90, 93, 96, 98, 106, 108 % of control

**Q.** And the T/C [9]?
**A.** 92, 93, 95, 100 % of control

**Q.** What about the survivor count [9] of the same molecule?
**A.** 3 of 3

**Q.** With `CN1CCCCC1C[CH2][Sn]([c]1ccccc1)([c]1ccccc1)[c]1ccccc1` (centres undefined) as the molecule, how does the survivor count [4] read?
**A.** 1 of 1

**Q.** What about the survivor count [5] of the same molecule?
**A.** 3 of 3

**Q.** And the survivor count [6]?
**A.** 0 of 3

**Q.** And the survivor count (dose: 50.0 mg/kg/injection, schedule: Q04DX002 (ip), vehicle: Klucel (hydroxypropylcellulose) (HPC))?
**A.** 3 of 3

**Q.** And the survivor count (dose: 100.0 mg/kg/injection, schedule: Q04DX002 (ip), vehicle: Klucel (hydroxypropylcellulose) (HPC))?
**A.** 0 of 3

**Q.** What about the survivor count (dose: 200.0 mg/kg/injection, schedule: Q04DX002 (ip), vehicle: Klucel (hydroxypropylcellulose) (HPC)) of the same molecule?
**A.** 0 of 3

**Q.** What about the survivor count (dose: 400.0 mg/kg/injection, schedule: Q04DX002 (ip), vehicle: Klucel (hydroxypropylcellulose) (HPC)) of the same molecule?
**A.** 0 of 3

**Q.** With `O=C(NC(CSC(=O)c1ccccc1)C(=O)O)OCc1ccccc1` (centres undefined) as the molecule, how does the survivor count (dose: 400.0 mg/kg/injection, schedule: Q01DX009 (ip), vehicle: Klucel (hydroxypropylcellulose) (HPC)) read?
**A.** 3 of 6

**Q.** Which results are given for `N#CNN=Nc1cc(Cl)c(Cl)c(Cl)c1`?
**A.** survivor count (dose: 25.0 mg/kg/injection, schedule: Q04DX003 (ip), vehicle: saline): 0 of 6; survivor count (dose: 50.0 mg/kg/injection, schedule: Q04DX003 (ip), vehicle: saline): 0 of 6; survivor count (dose: 100.0 mg/kg/injection, schedule: Q01DX009 (ip), vehicle: saline): 0 of 6; survivor count [1]: 0 of 6 and 1 of 6; survivor count (dose: 200.0 mg/kg/injection, schedule: Q01DX009 (ip), vehicle: saline): 0 of 6; survivor count [2]: 0 of 6; survivor count [3]: 0 of 6
